Two sequences from paper PMC9137774, “The ArsH Protein Product of the Paracoccus denitrificans ars Operon Has an Activity of Organoarsenic Reductase and Is Regulated by a Redox-Responsive Repressor” (Antioxidants, 2022) can be followed below.

No signal at the amounts used counts as a negative. At least one verdict rests on a figure or table, not on a statement of the authors. Protein sequences can lack the tags named with them. Construct, isoform or probe ends are uncertain for at least one entry.

Series [1] addresses T1, ArsR1 (Paracoccus denitrificans) (UniProt A1B6S3).
T1 sequence (looked up): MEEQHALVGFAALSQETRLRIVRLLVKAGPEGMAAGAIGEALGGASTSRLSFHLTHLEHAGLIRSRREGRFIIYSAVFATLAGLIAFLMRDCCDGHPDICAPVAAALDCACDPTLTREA
The series can be described thus: EMSA. The settings on record: EMSA: 10 mM Tris-HCl, 50 mM NaCl, 0.5 mM EDTA, pH 8.0, room temperature, 10 µM DNA and 10 µM ArsR, recombinant protein, residues 1-119, protein details: N-terminal His6 (pET100/D-TOPO), label: 5'-FAM on strand 1. In general terms: Mobility shift assays separate free from complexed probe on a gel.

Series [2] addresses T2, ArsR2 (Paracoccus denitrificans) (UniProt A1B7C2).
T2 sequence (looked up): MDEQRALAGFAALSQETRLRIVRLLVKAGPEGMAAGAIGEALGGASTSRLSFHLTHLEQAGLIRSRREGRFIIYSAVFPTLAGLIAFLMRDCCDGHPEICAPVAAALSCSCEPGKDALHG
The series can be described thus: EMSA. To be noted: EMSA: 10 mM Tris-HCl, 50 mM NaCl, 0.5 mM EDTA, pH 8.0, room temperature, 10 µM DNA and 10 µM ArsR, recombinant protein, residues 1-120, protein details: N-terminal His6 (pET100/D-TOPO), label: 5'-FAM on strand 1.

Where [3] appears, read: sodium arsenite (0.1 mM in Results, 1 mM in Methods).

“CTCAACATATCTTGAGAGGTTGATTCG (double strand) [PDNA1]”: the binding result in series [1] (1 mM diamide) is “no binding”; in series [1], “binds”; in series [1] (setting [3]) it was “no binding”; in series [2] (1 mM diamide) it was “no binding”; in series [2], “binds”; in series [2] (setting [3]) it was “no binding”.
For the sequence “ATCAACATATCTTGAGAGGTTGATTCG (double strand) [PDNA2]”, the binding result was “no binding” in series [1] (1 mM diamide); “binds” in series [1]; “no binding” in series [1] (setting [3]); “no binding” in series [2] (1 mM diamide); “binds” in series [2]; “no binding” in series [2] (setting [3]).
